“And” between values parts separate entries of the source, which are not always exact repeats. Equal entries are not always repeated. About 5,500 (1.4%) of roughly 400,000 compounds were called active. The inconclusive results got no clear call from the source; some entries with a clear call stand among them for comparison. Calls follow the shape of the dose curve; as a rule, active = well fitted cell-killing curve with a large enough effect; inconclusive = small, poorly fitted or top-dose-only effect, or effect the other way; inactive = flat fitted curve, though single readings scatter. Potencies of inconclusive entries are doubtful fits and often do not repeat.
Test: qHTS assay for MDR1-selective chemotherapeutics: Primary screen using the parental adenocarcinoma cell KB-3-1; also: nearly all actives have a fitted effect of over 60% in size
Conditions: KB-3-1 viability, CellTiter-Glo ATP luminescence, 72 h; activity change, negative = cytotoxic: at 46.1 µM (top of the series)
Procedure, shortened: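 Cells are dispensed, compounds pinned in, plates held at 37 °C for 72 h, then CellTiter-Glo is added and luminescence read after 10 minutes. Cell line: parental KB-3-1 in phenol-red-free DMEM, 10% FBS.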
% is scaled to controls: 0 for no effect and ±100 for the full control effect; potency is read from the fitted curve at half-maximal effect.

| SMILES | Potency | activity change, negative = cytotoxic |
| --- | --- | --- |
| O=C(Nc1ccc(Cl)cc1)Nc1nc(-c2ccccc2O)cs1 | inconclusive: 29.1 µM [cytotoxic, single point] |  |
| CC(=O)c1cn(CCOc2cc(C)ccc2C)c2ccccc12 | inconclusive: 5.17 µM [cytotoxic, full curve, poor fit] |  |
| COc1ccccc1N1CCN(C(=O)c2ccc(C(C)(C)C)cc2)CC1 |  | inconclusive: -39.3% [cytotoxic] |
| O=C(Nc1nc(-c2cccs2)cs1)c1ccc(Cl)cc1 | inconclusive: 18.4 µM [cytotoxic, single point] |  |
| O=C(CCn1cnc2ccccc2c1=O)Nc1nc(-c2ccc(Br)cc2)cs1 | inconclusive: 18.4 µM [cytotoxic, single point] |  |
| Cc1ccc(NC(=O)CNC(=O)Cn2c(C)cc3ccccc3c2=O)cc1F | inactive |  |
| S=C(NNc1ccnc2cc(Cl)ccc12)Nc1ccc(Cl)cc1Cl | inconclusive: 25.9 µM [cytotoxic, single point] |  |
| O=C(OCCN1C(=O)c2ccccc2C1=O)c1cc2ccccc2o1 | inactive |  |
| Cc1ccc(-c2nnc(-c3ccc(NC(=O)Cc4cccs4)cc3)o2)cc1 | inactive |  |
| Cc1ccc([N+](=O)[O-])cc1S(=O)(=O)N1CCn2cccc2C1c1ccccc1F (stereo not given) | inactive |  |
| CC(C)C(=O)N1CCC(CN=Cc2c(O)n(C3CCCCC3)c(=O)n(C3CCCCC3)c2=O)CC1 | inconclusive: 25.9 µM [cytotoxic, single point] |  |
| O=C(NCCCN=C1NS(=O)(=O)c2ccccc21)c1ccc(S(=O)(=O)N2CCCCC2)cc1 | active: 20.6 µM |  |
| CCCCC(=O)Oc1ccc2oc(-c3ccc(OC)cc3)cc(=O)c2c1 | inactive |  |
| O=[N+]([O-])c1ccc(NN=Cc2ccco2)nc1 | inactive |  |
| CC(=O)c1ccc(NC(=O)Cn2cnc3nc4c(cc3c2=O)CC(C)CC4)cc1 (stereo not given) | inactive |  |
| COCCn1c(=O)[nH]c2cc(C(=O)N3CCN(c4cccc(C(F)(F)F)c4)CC3)ccc2c1=O | inactive |  |
| Cc1ccc(S(=O)(=O)N2CCOCC2)cc1NC(=O)COc1cccc(Oc2ccccc2)c1 | inconclusive: 32.6 µM [cytotoxic, single point] |  |
| CC(C)(C)c1ccc(C(=O)NC(=S)NNC(=O)c2cccs2)cc1 | active: 2.59 µM |  |
| O=C1/C(=C\c2ccc([N+](=O)[O-])cc2)CS(=O)(=O)C/C1=C/c1ccc([N+](=O)[O-])cc1 | active: 1.46 µM |  |
| Cc1ccccc1CN1CCN(c2ccc(S(=O)(=O)N3CCCC3)cn2)CC1 | inconclusive: 25.9 µM [cytotoxic, single point] |  |
| Cc1nn(Cc2ccccc2)c(C)c1NC(=O)CSc1nc2sc3c(c2c(=O)n1C)CCC3 | active: 9.2 µM |  |
| C[C@H]1CN([C@@H](C)CO)C(=O)CCCn2cc(nn2)CO[C@@H]1CN(C)S(=O)(=O)c1cccs1 | inconclusive: 29.1 µM [rising, partial curve, poor fit] |  |
| O=C(NCc1cccnc1)c1ccccn1 | inconclusive: 14.6 µM [rising, partial curve, poor fit] |  |
| NC(=S)n1[nH]c(-c2ccc([N+](=O)[O-])cc2)c(N=Nc2cccc([N+](=O)[O-])c2)c1=O | inconclusive: 25.9 µM [cytotoxic, single point] |  |

| SMILES | Potency | activity change, negative = cytotoxic |
| --- | --- | --- |
| CCOC(=O)c1ccc2ncc(C(=O)OCC)c(NCc3ccco3)c2c1 | inconclusive: 29.1 µM [cytotoxic, single point] |  |
| Cc1cc(C(C)(C)C)cc(C)c1C[n+]1ccc2ccccc2c1 | active: 1.64 µM |  |
| CC1CCC(=NO)C(=NO)C1 (stereo not given) | inactive |  |
| COc1ccc2c(c1)c(C(=O)N/N=C/c1ccc(Br)cc1)c(C)n2C | inconclusive: 29.1 µM [cytotoxic, single point] |  |
| COC(=O)CC/C(O)=C1\C(=O)CC(C)(C)CC1=Nc1ccccc1OC | inconclusive: 25.9 µM [cytotoxic, single point] |  |
| CCOc1ccc(OCc2cccc(C(=O)Nc3ccc(CN4CCCCC4)cc3)c2)cc1 | inconclusive: 29.1 µM [cytotoxic, single point] |  |
| Cc1ccc(S(=O)(=O)c2c(C(=O)c3ccccc3)cnc3cc4c(cc23)OCCO4)cc1 | inconclusive: 18.4 µM [cytotoxic, partial curve, poor fit] |  |
| CSc1ncc(Cl)c(C(=O)Nc2cccc3ccccc23)n1 | inactive |  |
| COc1ccc(OC)c(/C=C/C(=O)OCC(=O)N2CCCC2)c1 | inactive |  |
| Cn1cnc([N+](=O)[O-])c1Sc1nc(N)nc2c1ncn2C1CC(O)C(CO)O1 (stereo not given) | active: 3.66 µM |  |
| CCOC(=O)c1ccccc1NC(=O)COC(=O)CCNS(=O)(=O)c1cccs1 | inactive |  |
| COc1ccc(OC)c(-c2nnc3n2N=C(c2ccc(OC)c(OCC4CC4)c2)CS3)c1 | active: 0.92 µM |  |
| Cc1ccccc1OC(=O)CSc1nnc(-c2ccc3c(c2)OCO3)o1 | inactive |  |
| CCOc1ccc(N(CCC#N)S(=O)(=O)c2ccc(OC)cc2)cc1 | inconclusive: 20.6 µM [cytotoxic, single point] |  |
| Cc1ccc2nsnc2c1S(=O)(=O)N1CCN(CCc2ccccc2)CC1 | inconclusive: 29.1 µM [cytotoxic, single point] |  |
| Cc1ccc2c(/C=C/c3c[nH]c4ccccc34)ccnc2c1C | active: 16.4 µM |  |
| Cc1ccccc1OCC(=O)NNC(=O)C1CCN(c2ncnc3sc(C)c(C)c23)CC1 | inconclusive: 0.731 µM [rising, full curve, poor fit] |  |
| COc1ccc(S(=O)(=O)N(C)[C@H]2C[C@H]3c4cc(-c5ccccc5)ccc4CCN3C(=O)[C@H]2[C@H](C)O)cc1 | inconclusive: 20.6 µM [cytotoxic, single point] |  |
| Cc1ccc(-c2nc(NCC3CCCO3)sc2C)cc1 (stereo not given) | inconclusive: 25.9 µM [cytotoxic, single point] |  |
| CCn1c(SCC(=O)Nc2cccc(F)c2)nnc1-c1cc2cc(Br)ccc2o1 | inconclusive: 20.6 µM [cytotoxic, single point] |  |
| CCOC(=O)c1[nH]c2cc(OC)c(OC)cc2c1NC(=O)CN(C)C1CCCCC1 | inconclusive: 18.4 µM [cytotoxic, single point] |  |
| CCN(CC)S(=O)(=O)c1ccc(N2CCCC2)c(NC(=O)c2ccc([N+](=O)[O-])o2)c1 | active: 6.51 µM |  |
| O=C(Nc1cccc(-c2csc(Nc3ccccc3)n2)c1)c1ccccc1 | inconclusive: 29.1 µM [cytotoxic, single point] |  |
| COc1cccc(C(=O)c2cc3cc(Cl)ccc3[nH]2)c1 | inconclusive: 18.4 µM [cytotoxic, partial curve, poor fit] |  |

Six records drawn at random from those above:

| SMILES | Potency | activity change, negative = cytotoxic |
| --- | --- | --- |
| NC(=S)n1[nH]c(-c2ccc([N+](=O)[O-])cc2)c(N=Nc2cccc([N+](=O)[O-])c2)c1=O | inconclusive: 25.9 µM [cytotoxic, single point] |  |
| Cc1ccc2c(/C=C/c3c[nH]c4ccccc34)ccnc2c1C | active: 16.4 µM |  |
| Cc1ccccc1OC(=O)CSc1nnc(-c2ccc3c(c2)OCO3)o1 | inactive |  |
| CCOC(=O)c1ccccc1NC(=O)COC(=O)CCNS(=O)(=O)c1cccs1 | inactive |  |
| Cc1nn(Cc2ccccc2)c(C)c1NC(=O)CSc1nc2sc3c(c2c(=O)n1C)CCC3 | active: 9.2 µM |  |
| COc1cccc(C(=O)c2cc3cc(Cl)ccc3[nH]2)c1 | inconclusive: 18.4 µM [cytotoxic, partial curve, poor fit] |  |

(further entries)

| SMILES | Potency | activity change, negative = cytotoxic |
| --- | --- | --- |
| CC(=O)N1N=C(c2ccc3nccnc3c2)CC1c1ccccc1 (stereo not given) | inactive |  |
| CCCN(CCC)S(=O)(=O)c1ccc2c(c1)N(CC(=O)NCc1ccc(F)cc1Cl)C(=O)CS2 | inconclusive: 18.4 µM [cytotoxic, partial curve, poor fit] |  |
| COc1ccc(C(=O)NC(Cn2ccnc2)C(C)(C)C)cc1OC1CCN(C(C)C)CC1 (stereo not given) | inconclusive: 29.1 µM [rising, single point] |  |
| CC1CCCN(CCCNC(=O)c2cc3c(s2)-c2ccccc2OC3)C1 (stereo not given) | inconclusive: 29.1 µM [cytotoxic, single point] |  |
| COc1ccc(CNC(=O)CN(C(=O)c2cc3sccc3n2C)C2CCCC2)cc1 | inactive |  |
| O=C(Cn1nnc(-c2cc(Cl)ccc2-n2cnnn2)n1)N1CCCc2ccccc21 | inconclusive: 1.84 µM [cytotoxic, full curve, poor fit] |  |
| N=c1c(C(=O)NCCc2ccccc2)cc2c(=O)n3ccccc3nc2n1Cc1ccco1 | inactive |  |
| COc1ccc(-c2cc(C(F)(F)F)nc(S(C)(=O)=O)n2)cc1 | inconclusive: 20.6 µM [cytotoxic, single point] |  |
| CCOC(=O)c1sc2ccccc2c1S(=O)(=O)Nc1ccc(CC)cc1 | inconclusive: 7.31 µM [cytotoxic, partial curve, poor fit] |  |
| COc1ccccc1OCCCn1cc(C#N)c2ccccc21 | active: 11.6 µM |  |
| COc1ccc(-c2c(-c3cc(OC)c(OC)c(OC)c3)noc2C)cn1 | active: 4.61 µM and active: 1.64 µM |  |
| O=C(Nc1ccccc1Cl)Nc1ccnn1C1CCN(C(=O)c2cscn2)CC1 |  | inconclusive: 32.5% |
| O=C(CNc1ccc(Br)cc1)NNC1=NCCC1 | inactive |  |
| Cc1ccccc1C(=O)Nc1scc(-c2ccc(Br)cc2)c1C(=O)O | inconclusive: 8.2 µM [cytotoxic, single point] |  |
| O=C(NCCCN1CCOCC1)c1ccc(CSc2ccc(Cl)cc2)cc1 | inconclusive: 29.1 µM [cytotoxic, single point] |  |
| CCCCN(CCCC)CCNC(=O)Cn1nc(C)n2c(cc3sccc32)c1=O | inactive |  |
| CC(C)c1ccc(NC(=O)CS(=O)(=O)c2cccc3nsnc23)cc1 | inactive |  |
| COc1cc2c(cc1OC)C(c1cccs1)N(C(=S)NC(C)C)CC2 (stereo not given) | inconclusive: 13 µM [cytotoxic, partial curve] |  |
| COc1ccc(NS(=O)(=O)c2cc(Br)cc3c2N(C(=O)C2CC2)CC3)cc1OC | inconclusive: 20.6 µM [cytotoxic, single point] |  |
| O=c1c2oc3ccccc3c2n(Cc2cccc(Cl)c2)c(=O)n1Cc1ccco1 | inconclusive: 20.6 µM [cytotoxic, single point] |  |
| COCCNC(=O)c1ccc(C(=O)C(=O)c2ccccc2)cc1 | inconclusive: 1.3 µM [rising, single point] |  |
| COc1cccc(NC(=O)n2ncc3c(C)cccc32)c1 | inconclusive: 6.51 µM [cytotoxic, partial curve, poor fit] |  |

Source: PubChem BioAssay AID1347075 (National Center for Advancing Translational Sciences (NCATS), 2019)
